Test results published in paper doi:10.1101/2020.02.18.953711 (bioRxiv, 2020).
These are yes or no findings as the source states them, for the method shown. Some entries that bind do so weakly or less than the wild type. Where a sequence is shown, tags or fusion partners need not be part of it.

Legend:
Assay in all cases: two-hybrid
[1] = target: T1, NRT1.2 N-terminal (NRT1.2N, 1-231 aa), MbSUS fusion (Arabidopsis thaliana) (UniProt Q8H157)
T1 sequence: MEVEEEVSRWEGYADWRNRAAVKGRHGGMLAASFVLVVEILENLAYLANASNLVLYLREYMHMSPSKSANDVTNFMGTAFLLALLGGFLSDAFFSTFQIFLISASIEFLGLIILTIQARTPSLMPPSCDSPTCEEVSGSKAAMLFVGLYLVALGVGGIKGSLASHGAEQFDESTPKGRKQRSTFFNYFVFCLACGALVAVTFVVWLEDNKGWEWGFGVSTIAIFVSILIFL

[2] = target: T2, NRT1.2 cytosol loop region (NRT1.2^loop, 232-346 aa), MbSUS fusion (Arabidopsis thaliana) (UniProt Q8H157)
T2 sequence: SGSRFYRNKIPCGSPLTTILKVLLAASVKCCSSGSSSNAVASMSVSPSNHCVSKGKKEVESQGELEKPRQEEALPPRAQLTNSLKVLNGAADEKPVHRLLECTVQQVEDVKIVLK

[3] = substrate: T3, C terminus of NRT1.2 (NRT1.2C, 347-585 aa), MbSUS fusion (Arabidopsis thaliana) (UniProt Q8H157)
T3 sequence: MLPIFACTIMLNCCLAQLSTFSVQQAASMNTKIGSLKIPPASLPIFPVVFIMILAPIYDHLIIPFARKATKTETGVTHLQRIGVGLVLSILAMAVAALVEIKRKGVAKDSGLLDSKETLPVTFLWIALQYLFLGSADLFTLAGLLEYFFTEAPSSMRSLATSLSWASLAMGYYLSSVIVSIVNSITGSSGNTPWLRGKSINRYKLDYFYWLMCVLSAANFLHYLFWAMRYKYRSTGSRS

[4] = target: T4, C-terminally encoded peptide receptor 2 (CEPR2), MbSUS fusion (Arabidopsis thaliana) (UniProt Q9C7T7)
T4 sequence: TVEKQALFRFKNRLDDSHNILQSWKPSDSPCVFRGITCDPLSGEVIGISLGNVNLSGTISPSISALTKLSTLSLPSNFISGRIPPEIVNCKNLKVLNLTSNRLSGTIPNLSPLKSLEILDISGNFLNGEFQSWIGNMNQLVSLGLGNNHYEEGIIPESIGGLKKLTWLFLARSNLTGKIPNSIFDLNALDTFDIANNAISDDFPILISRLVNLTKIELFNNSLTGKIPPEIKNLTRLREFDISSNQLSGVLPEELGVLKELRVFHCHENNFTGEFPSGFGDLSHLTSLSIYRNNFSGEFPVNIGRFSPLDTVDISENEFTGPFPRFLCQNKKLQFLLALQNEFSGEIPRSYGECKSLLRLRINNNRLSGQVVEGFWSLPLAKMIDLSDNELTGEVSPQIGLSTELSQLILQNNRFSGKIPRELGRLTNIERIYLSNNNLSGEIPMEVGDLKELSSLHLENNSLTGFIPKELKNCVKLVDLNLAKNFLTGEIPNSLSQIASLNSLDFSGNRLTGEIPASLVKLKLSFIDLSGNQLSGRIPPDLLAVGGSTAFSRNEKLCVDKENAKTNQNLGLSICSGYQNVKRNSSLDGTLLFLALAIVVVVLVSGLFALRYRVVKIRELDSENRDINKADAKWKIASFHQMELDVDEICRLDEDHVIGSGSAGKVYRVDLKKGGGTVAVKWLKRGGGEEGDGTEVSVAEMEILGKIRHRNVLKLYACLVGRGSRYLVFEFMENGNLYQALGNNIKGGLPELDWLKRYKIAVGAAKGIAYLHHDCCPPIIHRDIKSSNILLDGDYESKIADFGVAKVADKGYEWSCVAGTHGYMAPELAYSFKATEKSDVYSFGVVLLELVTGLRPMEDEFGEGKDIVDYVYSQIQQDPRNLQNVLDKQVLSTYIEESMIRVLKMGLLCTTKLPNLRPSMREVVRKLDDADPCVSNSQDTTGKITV

B1: UBC32, MbSUS fusion (enzyme, UniProt Q9LSP7 1-309)
chain: MADERYNRKNPAVKRILQEVKEMQANPSDDFMSLPLEENIFEWQFAIRGPGDTEFEGGIYHGRIQLPADYPFKPPSFMLLTPNGRFETNTKICLSISNYHPEHWQPSWSVRTALVALIAFMPTSPNGALGSVDYPKDERRTLAIKSRETPPKYGSPERQKIIDEIHQYILSKATVVPKPLPLECSQAPSIVSEAHSQVEPQEAITVVEERSIATTDTIVDDQIIEETAEAVNTAASVVPAAAPLPAVEVVVKASVSGEQRMARRAAQKPVDDRLFTWAAVGLTIAIMVLLLKKFIKSNGYSTGFMDDQS
In the case of B1, the binding [1] is reported as “binds”, the binding [2] is reported as “binds” and the binding [3] is reported as “binds”.

B2: UBC33, MbSUS fusion (enzyme, UniProt Q9FK29 1-243)
chain: MAEKACIKRLQKEYRALCKEPVSHVVARPSPNDILEWHYVLEGSEGTPFAGGFYYGKIKFPPEYPYKPPGITMTTPNGRFVTQKKICLSMSDFHPESWNPMWSVSSILTGLLSFMMDNSPTTGSVNTSVAEKQRLAKSSLAFNCKSVTFRKLFPEYVEKYSQQQVAEEEAATQQTTTSENQDFPQKDNAKVESEKSVGLKKESIQEVGLKERRRNKKEALPGWIVLLLVSIVGVVMALPLLQL
In the case of B2, the binding [1] is reported as “binds”, the binding [2] is reported as “binds” and the binding [3] is reported as “binds”.

B3: UBIQUITIN-CONJUGATING ENZYME 34 (UBC34), MbSUS fusion (enzyme, UniProt Q9SHI7 1-237)
chain: MAEKACIKRLQKEYRALCKEPVSHVVARPSPNDILEWHYVLEGSEGTPFAGGFYYGKIKFPPEYPYKPPGITMTTPNGRFMTQKKICLSMSDFHPESWNPMWSVSSILTGLLSFMMDTSPTTGSVNTTVIEKQRLAKSSLAFNCKTPAFRKLFPEYVEKYNQQQLAEQATTQLTTPESPQKSDTKVESEKTIDPTKGDSEGGLKERKKNNKQGLPAWIILLLVSVFGVVMALPLLQL
B3 was tested, and the binding [1] was “binds”, the binding [2] was “binds” and the binding [3] was “binds”.

B4: ABCG31, MbSUS fusion (protein, UniProt Q7PC88 1-1426)
chain: MAAASNGSEYFEFDVETGRESFARPSNAETVEQDEEDLRWAAIGRLPSQRQGTHNAILRRSQTQTQTSGYADGNVVQTIDVKKLDRADREMLVRQALATSDQDNFKLLSAIKERLDRVGMEVPKIEVRFENLNIEADVQAGTRALPTLVNVSRDFFERCLSSLRIIKPRKHKLNILKDISGIIKPGRMTLLLGPPGSGKSTLLLALAGKLDKSLKKTGNITYNGENLNKFHVKRTSAYISQTDNHIAELTVRETLDFAARCQGASEGFAGYMKDLTRLEKERGIRPSSEIDAFMKAASVKGEKHSVSTDYVLKVLGLDVCSDTMVGNDMMRGVSGGQRKRVTTGEMTVGPRKTLFMDEISTGLDSSTTFQIVKCIRNFVHLMDATVLMALLQPAPETFDLFDDLILLSEGYMVYQGPREDVIAFFESLGFRLPPRKGVADFLQEVTSKKDQAQYWADPSKPYQFIPVSDIAAAFRNSKYGHAADSKLAAPFDKKSADPSALCRTKFAISGWENLKVCFVRELLLIKRHKFLYTFRTCQVGFVGLVTATVFLKTRLHPTSEQFGNEYLSCLFFGLVHMMFNGFSELPLMISRLPVFYKQRDNSFHPAWSWSIASWLLRVPYSVLEAVVWSGVVYFTVGLAPSAGRFFRYMLLLFSVHQMALGLFRMMASLARDMVIANTFGSAAILIVFLLGGFVIPKADIKPWWVWGFWVSPLSYGQRAIAVNEFTATRWMTPSAISDTTIGLNLLKLRSFPTNDYWYWIGIAVLIGYAILFNNVVTLALAYLNPLRKARAVVLDDPNEETALVADANQVISEKKGMILPFKPLTMTFHNVNYYVDMPKEMRSQGVPETRLQLLSNVSGVFSPGVLTALVGSSGAGKTTLMDVLAGRKTGGYTEGDIRISGHPKEQQTFARISGYVEQNDIHSPQVTVEESLWFSASLRLPKEITKEQKKEFVEQVMRLVELDTLRYALVGLPGTTGLSTEQRKRLTIAVELVANPSIIFMDEPTSGLDARAAAIVMRTVRNTVDTGRTVVCTIHQPSIDIFEAFDELLLMKRGGQVIYGGKLGTHSQVLVDYFQGINGVPPISSGYNPATWMLEVTTPALEEKYNMEFADLYKKSDQFREVEANIKQLSVPPEGSEPISFTSRYSQNQLSQFLLCLWKQNLVYWRSPEYNLVRLVFTTIAAFILGTVFWDIGSKRTSSQDLITVMGALYSACLFLGVSNASSVQPIVSIERTVFYREKAAGMYAPIPYAAAQGLVEIPYILTQTILYGVITYFTIGFERTFSKFVLYLVFMFLTFTYFTFYGMMAVGLTPNQHLAAVISSAFYSLWNLLSGFLVQKPLIPVWWIWFYYICPVAWTLQGVILSQLGDVESMINEPLFHGTVKEFIEYYFGYKPNMIGVSAAVLVGFCALFFSAFALSVKYLNFQRR
For B4, the binding [4] was “no binding”.

B5: ABCG40, MbSUS fusion (protein, UniProt Q9M9E1 1-1423)
chain: MEGTSFHQASNSMRRNSSVWKKDSGREIFSRSSREEDDEEALRWAALEKLPTFDRLRKGILTASHAGGPINEIDIQKLGFQDTKKLLERLIKVGDDEHEKLLWKLKKRIDRVGIDLPTIEVRFDHLKVEAEVHVGGRALPTFVNFISNFADKFLNTLHLVPNRKKKFTILNDVSGIVKPGRMALLLGPPSSGKTTLLLALAGKLDQELKQTGRVTYNGHGMNEFVPQRTAAYIGQNDVHIGEMTVRETFAYAARFQGVGSRYDMLTELARREKEANIKPDPDIDIFMKAMSTAGEKTNVMTDYILKILGLEVCADTMVGDDMLRGISGGQKKRVTTGEMLVGPSRALFMDEISTGLDSSTTYQIVNSLRNYVHIFNGTALISLLQPAPETFNLFDDIILIAEGEIIYEGPRDHVVEFFETMGFKCPPRKGVADFLQEVTSKKDQMQYWARRDEPYRFIRVREFAEAFQSFHVGRRIGDELALPFDKTKSHPAALTTKKYGVGIKELVKTSFSREYLLMKRNSFVYYFKFGQLLVMAFLTMTLFFRTEMQKKTEVDGSLYTGALFFILMMLMFNGMSELSMTIAKLPVFYKQRDLLFYPAWVYSLPPWLLKIPISFMEAALTTFITYYVIGFDPNVGRLFKQYILLVLMNQMASALFKMVAALGRNMIVANTFGAFAMLVFFALGGVVLSRDDIKKWWIWGYWISPIMYGQNAILANEFFGHSWSRAVENSSETLGVTFLKSRGFLPHAYWYWIGTGALLGFVVLFNFGFTLALTFLNSLGKPQAVIAEEPASDETELQSARSEGVVEAGANKKRGMVLPFEPHSITFDNVVYSVDMPQEMIEQGTQEDRLVLLKGVNGAFRPGVLTALMGVSGAGKTTLMDVLAGRKTGGYIDGNITISGYPKNQQTFARISGYCEQTDIHSPHVTVYESLVYSAWLRLPKEVDKNKRKIFIEEVMELVELTPLRQALVGLPGESGLSTEQRKRLTIAVELVANPSIIFMDEPTSGLDARAAAIVMRTVRNTVDTGRTVVCTIHQPSIDIFEAFDELFLLKRGGEEIYVGPLGHESTHLINYFESIQGINKITEGYNPATWMLEVSTTSQEAALGVDFAQVYKNSELYKRNKELIKELSQPAPGSKDLYFPTQYSQSFLTQCMASLWKQHWSYWRNPPYTAVRFLFTIGIALMFGTMFWDLGGKTKTRQDLSNAMGSMYTAVLFLGLQNAASVQPVVNVERTVFYREQAAGMYSAMPYAFAQVFIEIPYVLVQAIVYGLIVYAMIGFEWTAVKFFWYLFFMYGSFLTFTFYGMMAVAMTPNHHIASVVSSAFYGIWNLFSGFLIPRPSMPVWWEWYYWLCPVAWTLYGLIASQFGDITEPMADSNMSVKQFIREFYGYREGFLGVVAAMNVIFPLLFAVIFAIGIKSFNFQKR
In the case of B5, the binding [4] is reported as “no binding”.
